Measurements reported in PubChem BioAssay AID1159584 (Peter MacCallum Cancer Centre, 2016).

- Assay: 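Genes that CDH1-null MCF10A cells selectively depend on to survive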 (primary screen)
- System: human MCF10A breast epithelial cells, parental and CDH1-null
- Knock-down reagent: siRNA against human genes
- Measurement: 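ATP luminescence (CellTiter-Glo) viability per line relative to mean mock wells over all plates, and the ratio of CDH1-null to parental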
- Scale: CDH1-null / parental viability ratio: higher = CDH1-null cells survive relatively better than parental; CDH1-null viability vs mock: higher = more viable CDH1-null cells
- Units: CDH1-null viability vs mock in fraction of mock
The whole screen tested about 18,000 reagents; below is a part drawn at random. Not all columns of the deposit are shown. Not stated in the record: the amount of reagent, the time to read-out.

AOC1 (amine oxidase copper containing 1)
- CDH1-null / parental viability ratio: 1.12
- CDH1-null viability vs mock: 0.93

SPON2 (spondin 2)
- CDH1-null / parental viability ratio: 0.75
- CDH1-null viability vs mock: 0.4

H2BC15 (H2B clustered histone 15)
- CDH1-null / parental viability ratio: 0.91
- CDH1-null viability vs mock: 0.64

SPATA8 (spermatogenesis associated 8)
- CDH1-null / parental viability ratio: 1.24
- CDH1-null viability vs mock: 1.08

SERTAD4 (SERTA domain containing 4)
- CDH1-null / parental viability ratio: 1.39
- CDH1-null viability vs mock: 0.79

CLIP3 (CAP-Gly domain containing linker protein 3)
- CDH1-null / parental viability ratio: 1.03
- CDH1-null viability vs mock: 0.76

DDR2 (discoidin domain receptor tyrosine kinase 2)
- CDH1-null / parental viability ratio: 0.89
- CDH1-null viability vs mock: 0.82

PPP2R2C (protein phosphatase 2 regulatory subunit Bgamma)
- CDH1-null / parental viability ratio: 1.58
- CDH1-null viability vs mock: 1.04

LRTM2 (leucine rich repeat transmembrane protein 2)
- CDH1-null / parental viability ratio: 1.15
- CDH1-null viability vs mock: 0.9

IQSEC3 (IQ motif and Sec7 domain ArfGEF 3)
- CDH1-null / parental viability ratio: 1.09
- CDH1-null viability vs mock: 0.87

FANCM (FA complementation group M)
- CDH1-null / parental viability ratio: 0.59
- CDH1-null viability vs mock: 0.41

UBE2Q2 (ubiquitin conjugating enzyme E2 Q2)
- CDH1-null / parental viability ratio: 1.15
- CDH1-null viability vs mock: 0.91

RAET1L (retinoic acid early transcript 1L)
- CDH1-null / parental viability ratio: 0.73
- CDH1-null viability vs mock: 0.55

FASTKD1 (FASTK mitochondrial RNA regulator 1)
- CDH1-null / parental viability ratio: 1.21
- CDH1-null viability vs mock: 0.68

Already shown: 6 of the entries above.
H2BC15 (H2B clustered histone 15)
- CDH1-null / parental viability ratio: 0.91
- CDH1-null viability vs mock: 0.64

SPATA8 (spermatogenesis associated 8)
- CDH1-null / parental viability ratio: 1.24
- CDH1-null viability vs mock: 1.08

SERTAD4 (SERTA domain containing 4)
- CDH1-null / parental viability ratio: 1.39
- CDH1-null viability vs mock: 0.79

CLIP3 (CAP-Gly domain containing linker protein 3)
- CDH1-null / parental viability ratio: 1.03
- CDH1-null viability vs mock: 0.76

DDR2 (discoidin domain receptor tyrosine kinase 2)
- CDH1-null / parental viability ratio: 0.89
- CDH1-null viability vs mock: 0.82

PPP2R2C (protein phosphatase 2 regulatory subunit Bgamma)
- CDH1-null / parental viability ratio: 1.58
- CDH1-null viability vs mock: 1.04

More reagents follow:
STAB2 (stabilin 2)
- CDH1-null / parental viability ratio: 1.03
- CDH1-null viability vs mock: 0.74

GEM (GTP binding protein overexpressed in skeletal muscle)
- CDH1-null / parental viability ratio: 0.97
- CDH1-null viability vs mock: 0.7

KLHL2 (kelch like family member 2)
- CDH1-null / parental viability ratio: 1.78
- CDH1-null viability vs mock: 0.89

KHSRP (KH-type splicing regulatory protein)
- CDH1-null / parental viability ratio: 0.92
- CDH1-null viability vs mock: 0.78

LAMTOR5 (late endosomal/lysosomal adaptor, MAPK and MTOR activator 5)
- CDH1-null / parental viability ratio: 0.76
- CDH1-null viability vs mock: 0.52

TCIM (transcriptional and immune response regulator)
- CDH1-null / parental viability ratio: 1
- CDH1-null viability vs mock: 0.38

RYK (receptor like tyrosine kinase)
- CDH1-null / parental viability ratio: 0.93
- CDH1-null viability vs mock: 0.76

SCGB1A1 (secretoglobin family 1A member 1)
- CDH1-null / parental viability ratio: 0.91
- CDH1-null viability vs mock: 0.64

UBXN8 (UBX domain protein 8)
- CDH1-null / parental viability ratio: 1.35
- CDH1-null viability vs mock: 0.62

BEND4 (BEN domain containing 4)
- CDH1-null / parental viability ratio: 0.94
- CDH1-null viability vs mock: 0.75

WDR13 (WD repeat domain 13)
- CDH1-null / parental viability ratio: 1.17
- CDH1-null viability vs mock: 0.7

ERMN (ermin)
- CDH1-null / parental viability ratio: 1.44
- CDH1-null viability vs mock: 0.82

SHOX (SHOX homeobox)
- CDH1-null / parental viability ratio: 0.98
- CDH1-null viability vs mock: 1.02

APOBEC3D (apolipoprotein B mRNA editing enzyme catalytic subunit 3D)
- CDH1-null / parental viability ratio: 0.83
- CDH1-null viability vs mock: 0.7

IL22RA1 (interleukin 22 receptor subunit alpha 1)
- CDH1-null / parental viability ratio: 0.7
- CDH1-null viability vs mock: 0.62

TFCP2 (transcription factor CP2)
- CDH1-null / parental viability ratio: 0.95
- CDH1-null viability vs mock: 1.04

SLC22A9
- CDH1-null / parental viability ratio: 1.17
- CDH1-null viability vs mock: 0.77

FARP1 (FERM, ARH/RhoGEF and pleckstrin domain protein 1)
- CDH1-null / parental viability ratio: 1.85
- CDH1-null viability vs mock: 0.98

SLC25A40
- CDH1-null / parental viability ratio: 0.93
- CDH1-null viability vs mock: 0.56

HAPSTR1 (HUWE1 associated protein modifying stress responses)
- CDH1-null / parental viability ratio: 1.13
- CDH1-null viability vs mock: 0.79

CTDSP1 (CTD small phosphatase 1)
- CDH1-null / parental viability ratio: 1.48
- CDH1-null viability vs mock: 0.92
